# In publication PMC10020529:
# Sequences of proteins named here, by UniProt entry; tags and fusion partners are left off.
# UniProt P24385: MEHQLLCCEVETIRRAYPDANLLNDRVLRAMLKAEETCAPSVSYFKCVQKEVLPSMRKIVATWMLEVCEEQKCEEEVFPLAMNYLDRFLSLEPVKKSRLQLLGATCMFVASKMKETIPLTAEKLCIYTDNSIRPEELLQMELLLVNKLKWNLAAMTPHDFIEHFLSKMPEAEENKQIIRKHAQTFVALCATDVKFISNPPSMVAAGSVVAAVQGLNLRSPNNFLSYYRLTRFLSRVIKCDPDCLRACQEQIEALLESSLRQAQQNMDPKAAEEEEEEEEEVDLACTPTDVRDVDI
# Results are given in words; binding and its absence hold for the method and conditions named. Binding seen in cells or lysates may run through a third protein. Some results given as binding are weak or reduced against the parent protein; the word gives no strength. Sequences can lack the tags named with a protein.
# B1: 3 × Flag-FBXO43 (protein, UniProt Q4G163 1-708)
# chain: MSFKDKDERISCLEAYVTLTSKSSRFTDETEILKMSQRHSGQAGTEAGNGADSPPIVNSKYSTFRDFCSTSSFQDSGYNELKSCSFDNIDKEYLGKKEKGPTLLYEHPETSGLGLTHPLESPTQKKKCILPRKEKDKTPELCETPKISGKKCLPRRRLNVSFALLKGDFESQNSSLESSISQVINLEKNIPSSASGFSRANNFSPLVTSTLKTEEVTSCSQKLRLNFSQQKTSTIDDSKDDCSLFEVECISPIQGNNFKDSITHDFSDSSLCINDENACPELLGSSVSGTTCGTDEDIFVTPISNLVANIRFNASQILSPSPEVRGSISTPEDSGFNSLSLEKSEDSLSDQEGSFQELLQKHKGTPKVGDTIRKTRHLGRSRRLSTLREQSSQSETEEEKQIVHPDSEKRAAAASAISEGQLSSDESGDLTFSLKNLSKTPALQLVHELFMKSKRKRLQENSGHEFLEQGDGEKIAVLQCILAGLIGKKMGIEKLDILTELKYRNLKHILAMVLESLTAESLCSVWKVSRNWREIVVQDKNANRRRKFYITQLKTDSEGAVLNVEDAATRLQLLNRSALRSVQAQARIPGSQREQGSTLSPWGEVLTPLASSSVTHLSSKQEEYVKVAKTLFTDEALKPCPRCQSPAKYQPYKKRGLCSRTACGFDFCVLCLCAYHGSEECSRGAAKPRNRKDALPGSAQSKRNLKRL
# How the values were obtained:
# 3 × Flag-FBXO43 = molecular target: T1, 3 × Flag-FBXO43 (UniProt Q4G163); test: co-IP; Huh7 and LM3 cells transfected with 3 × Flag-FBXO43 for 48 h; lysate immunoprecipitated with anti-Flag (normal IgG as control), Protein A/G PLUS-Agarose, 4°C overnight; washed with 20 mM Tris-HCl pH 8.0, 100 mM NaCl, 1% NP-40; Western blot
# T1 sequence: B1 chain
# [1] = molecular target: cyclin D1 (CCND1) (human (endogenous in Huh7 and LM3)) (UniProt P24385); test: co-IP; Huh7 and LM3 cells transfected with indicated plasmids; lysate immunoprecipitated with anti-CCND1 (normal IgG as control), Protein A/G PLUS-Agarose, 4°C overnight; washed with 20 mM Tris-HCl pH 8.0, 100 mM NaCl, 1% NP-40; Western blot
Molecule,binding (3 × Flag-FBXO43),binding [1]
cyclin D1 (CCND1) (from UniProt P24385 1-295),binds,
B1,,binds
